Measurements taken from patent US7250390B2, “High performance water based drilling fluids and method of use” (M-I L.L.C., priority 2002, dated 2007).

Test: Shale dispersion test, hot rolling cuttings in field mud
Conditions: Foss Eikland Cuttings (4.6-8.0 mm), hot rolled 16 hours at 150° F.

OCCNCCCOCCNCCO [(I)]
Total Recovered (Base Field Mud (11.78 ppb) potassium based lignite + 21 ppb (I)): 78.0%
Total Recovered (Base Field Mud (16.8 ppb) chrome free lignosulfonate + 10.5 ppb (I)): 85.3%
